PubChem BioAssay AID1671195 | Yale University | 2021
In all, the deposit lists about 22,000 reagents; below is an unselected part. Over the whole deposit, about 1,510 (6.9%) are marked active. 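Active includes knockdowns raising or lowering LDL uptake; positive z-scores mean more uptake, negative mean less.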

Screen: 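Regulators of LDL receptor activity judged by labelled LDL uptake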 (primary screen)
Cells: human Huh7 hepatoma cells
Reagent: siRNA pool against human genes, 18 nM
Timing: about 2 to 2.5 days of knockdown, then 8 h LDL uptake
Challenge: DiI-labelled LDL at 30 µg/ml for 8 h, in lipoprotein-deficient serum medium
Detection: 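Fluorescent LDL signal imaged in cells, scaled to the plate median, robust z-score for each replicate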
Reading the numbers: robust z-score: higher = more LDL uptake after knockdown
Active means: 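Active when two or more replicates show a robust z-score above 2 or below -2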

Depletion of RPL31P8 came out at: robust z-score, replicate 1 = -0.00725; robust z-score, replicate 2 = 0.168; robust z-score, replicate 3 = 0.302; inactive. Silencing of FDPS resulted in: robust z-score, replicate 1 = -1.42; robust z-score, replicate 2 = -0.819; robust z-score, replicate 3 = -0.878; inactive. Against ANAPC13, the values are robust z-score, replicate 1 = -0.641; robust z-score, replicate 2 = 0.407; robust z-score, replicate 3 = -0.969; inactive. RPL29P32 scored robust z-score, replicate 1 = -0.39; robust z-score, replicate 2 = -0.53; robust z-score, replicate 3 = -0.506; inactive. Depletion of TIMM10B came out at: robust z-score, replicate 1 = -1.75; robust z-score, replicate 2 = -1.45; robust z-score, replicate 3 = -1.08; inactive. PSG1 gave robust z-score, replicate 1 = 0.62; robust z-score, replicate 2 = 1.05; robust z-score, replicate 3 = 1.37; inactive.

OGG1 gave robust z-score, replicate 1 = -1.9; robust z-score, replicate 2 = -1.21; robust z-score, replicate 3 = -1.49; inactive. Against WDFY1 the deposit lists robust z-score, replicate 1 = 1.56; robust z-score, replicate 2 = 1.43; robust z-score, replicate 3 = 1.83; inactive. ZNF575 showed robust z-score, replicate 1 = -2; robust z-score, replicate 2 = -2.6; robust z-score, replicate 3 = -2.74; active. After knock-down of LINC02389, the screen gave robust z-score, replicate 1 = -0.0437; robust z-score, replicate 2 = -1.42; robust z-score, replicate 3 = -1.34; inactive. After knock-down of AP2A1, the screen gave robust z-score, replicate 1 = -0.764; robust z-score, replicate 2 = -1.14; robust z-score, replicate 3 = -1.04; inactive. Silencing of LARP6 resulted in: robust z-score, replicate 1 = -0.684; robust z-score, replicate 2 = -0.733; robust z-score, replicate 3 = -0.388; inactive.

Knock-down of TDRD7 resulted in: robust z-score, replicate 1 = -0.0879; robust z-score, replicate 2 = 0.443; robust z-score, replicate 3 = 0.534; inactive. Against SLC46A2 the deposit lists robust z-score, replicate 1 = -1.42; robust z-score, replicate 2 = -1.86; robust z-score, replicate 3 = -1.57; inactive. ADAD2 scored robust z-score, replicate 1 = 1.02; robust z-score, replicate 2 = 0.0498; robust z-score, replicate 3 = -0.192; inactive. PRDX3 scored robust z-score, replicate 1 = 0.452; robust z-score, replicate 2 = 0.49; robust z-score, replicate 3 = 1.16; inactive.

Hits (from the list above):
ZNF575 — robust z-score, replicate 1: -2; robust z-score, replicate 2: -2.6; robust z-score, replicate 3: -2.74; call: active
